Results taken from the supplement of paper PMC5949888.
Most values lie at the floor of the assay. Slopes are relative: functional sequences can read slightly below zero.

Each substance was assayed on Saccharomyces cerevisiae PS128 hsf1 delta, HSF1(1-493) fusion (assay: growth estimate (transactivation domain function in HSF1 fusion, heat-shock survival) (a.u. (slope of normalised read count over time)); higher = stronger growth at 37°C, i.e. more transactivation activity). Conditions: library: random library.

Substance | growth estimate
CTVTCCAHAQ | < -0.25
EFCT | < -0.25
FYDSAAPVRTFQLRLRVVRP | < -0.25
TFFLVGDKELQWRRYCVVIG | < -0.25
EIVKVIRMSRAA | < -0.25
AYVLFSIENSLLGDTSGEPR | < -0.25
AGSKVLGIA | < -0.25
PAT | < -0.25
PQGVIVFREDL | < -0.25
RPFLHSRLR | < -0.25
IRGVETNPRVGSHRRRYRLV | < -0.25
SCLEPGLLMGTLVRHRGTGY | < -0.25
NEYMAEGWLGKT | < -0.25
WHV | < -0.25
LEPCSAASAPRLTCGEGTRC | < -0.25
MLAIVWTLYKRAAKPEHLRA | -0.221
GSGSLWLTSFANVGRIESGY | < -0.25
VRPLTLQSPTLVRIFDTDRA | < -0.25
DRLY | < -0.25
GTSSVLLVLYLL | < -0.25
TECQWQSRLTILRWTATLIV | < -0.25
SSLPTADGLREDSCELLPAG | < -0.25
PMVKN | < -0.25

Substance | growth estimate
TKPVVLVM | < -0.25
TGIGERAGRPFRTQLCDMQI | < -0.25
GCDTLTRLFARCRSSLARDR | < -0.25
VSYAGRKPVRRFTLDHACSG | < -0.25
KSSFEFISLGSSLFDIICPL | < -0.25
RRMRAVLRQRASLGGEDGVA | < -0.25
KQSRKVVSASLVWCM | < -0.25
PLAFRPYASRSHRKVLPLDV | < -0.25
PWRAVTRSSRHQLRRIGETR | < -0.25
YGWESMHLPRQAMEVVYPGL | < -0.25
LVMSVTLRA | < -0.25
ARLPFIQ | < -0.25
GDPGAYWLWSINWNSKEPLS | -0.0959
LMISALIWLYFLGLSGVPCR | < -0.25
FVGPVVYYLQDSSILNRSSM | < -0.25
SGGNANDSALCSPLCRLKHA | < -0.25
LPGCRPYLLGGLGVHGTRCR | < -0.25
QRTVHN | < -0.25
VGCSG | < -0.25
PINKFVVSPCPTLCAFFAGW | < -0.25
RLDRH | < -0.25
DGAAKAGSCQHVMPFATLIR | < -0.25
IPCRAKAPPSIHVVAAYWAV | < -0.25

Substance | growth estimate
GSACVGVSSGKTRQVRRLYL | -0.25
GILIPSGDLTP | < -0.25
VGGNPPTGCTRDEGLKNSWA | < -0.25
LRRDAPLIAARGKRVLYR | < -0.25
VDCLCPKCRFE | < -0.25
RMEITLMEAYSE | < -0.25
PYDDISPEIHHSH | < -0.25
CISQV | < -0.25
PWGSG | < -0.25
SGSS | < -0.25
CCSRRVVERTCRSDPKWSKR | < -0.25
GSHLLAGSHNRECQLIDIPC | < -0.25
TKSA | < -0.25
QPPLRWGG | < -0.25
SFRAYQYQGTDRSLSVNCRN | < -0.25
TMSCLDSRLELCLSTGRRQS | < -0.25
NSQAWQGGDYQCSIGVFRAD | < -0.25
LGTCYGGPPARKEPVVQIIT | < -0.25
KFSVSIV | < -0.25
HHTPCAGRNFGLAGPS | < -0.25
PGALYG | < -0.25
PVTCDLLAVDVIRTFSNIVR | < -0.25
VIVIKGLPC | < -0.25

Substance | growth estimate
LVNAYRSGCPPCMGTCWHKG | < -0.25
DNSIGESGIIRRYEIVTELA | < -0.25
CDRGRHLSQPTPFRIHMDAP | < -0.25
VECLTIPLEARLRLVGCRRL | < -0.25
GQRSRRTPPLVYI | < -0.25
LCREC | < -0.25
LGTPVSGKCTVPEIGRSARG | < -0.25
AGGPLLSARSNLLLSANVGL | < -0.25
WWQNNFDGVATGCPKVTYAD | < -0.25
HEKRKREWPKLCLTLCRGGY | < -0.25
YWRDLMS | < -0.25
HFPHVGKWSNASCKLGIGSD | < -0.25
HPTVSCWGYSCCRAGSE | < -0.25
AWGQLGLQNAGQESALTPNE | < -0.25
LNPGLKYCSCRL | < -0.25
ESSRDFGAVLHYPRYPPGEL | -0.25
SGCVYLAGFPYSG | -0.246
GWPDVR | < -0.25
YVRVQVYRASKCETLYQPF | < -0.25
ATRESGPRF | < -0.25
GYRGGDEGSPVHRGTLNECT | < -0.25
RKTHLRRR | < -0.25
RSIRQC | -0.246

Substance | growth estimate
GHIKGVLCTV | < -0.25
IWLSL | < -0.25
TKHGLRAEYVTRGT | < -0.25
GRGRDATK | < -0.25
TQKETWFSAVQLFCRRGVSE | < -0.25
DAFLDTSTECWNPNGNKLGG | < -0.25
GPRLSRSCNFESGPGHKLIF | < -0.25
YSTSIVQPYAALYCGIVPSA | < -0.25
MLSPPVSGFYGIGRGDSLT | < -0.25
LPRPNLSGVPIVVTKGARDR | < -0.25
YPSDSIARVPLVQDLAQLGA | < -0.25
TTVNTGDGSLWR | < -0.25
LTVVGFPGNLLGM | < -0.25
VTSIRQFS | < -0.25
VPLSHGISERKTNGCFKPRS | < -0.25
TYD | < -0.25
IQYY | < -0.25
QEEVTFVTVIIGEGYDSLRG | < -0.25
ITS | < -0.25
GVNTRRVGRDGREMRLLCTH | < -0.25
NMRGFGAIRCCCATFLNAS | -0.243
VASSPQELRLVEAHPPHEQL | < -0.25
GFQ | < -0.25

Copied from above for reference:
Substance | growth estimate
GPRLSRSCNFESGPGHKLIF | < -0.25
YSTSIVQPYAALYCGIVPSA | < -0.25
MLSPPVSGFYGIGRGDSLT | < -0.25
LPRPNLSGVPIVVTKGARDR | < -0.25
YPSDSIARVPLVQDLAQLGA | < -0.25
TTVNTGDGSLWR | < -0.25
LTVVGFPGNLLGM | < -0.25

Remaining list, next part:

Substance | growth estimate
VDNKFAALER | -0.243
GGIYISLTGK | < -0.25
VCITWPW | < -0.25
RDRVAS | < -0.25
VGPLSWELPY | -0.244
AGQTKPL | < -0.25
VWRRRRHRCWQYLLLFICQR | < -0.25
SRHCGPG | < -0.25
SFSARFIEV | < -0.25
PKRGEGGATVAFMRPIYKGT | < -0.25
PIPNVTSAALGRRPGMWGHQ | < -0.25
ESRKSSSYHVKLKPPLERAV | < -0.25
GCGRG | < -0.25
VFYDSSEAISFKGSDSRLIR | < -0.25
DGSGCFSYALRCVLPSRYSG | -0.231
GAFVVEASRLTFVNLVGWAL | < -0.25
CCVFPTYLKRR | < -0.25
LSEPEW | < -0.25
ERSQRARIPRC | < -0.25
QRWDPVMQTRFVDVCSRGGR | < -0.25
AISVHSDNNCQEKCLHLRSI | < -0.25
LGHD | < -0.25
GGRYGIGNVSTGSSGNC | < -0.25

Substance | growth estimate
PPQDLEGFLTIVP | -0.204
KRIGWLYNSSGQP | < -0.25
YWSHSLVTCMRFITS | < -0.25
RILCGTTKTCAHCPGHGAD | < -0.25
VNGRACMASWESRFPVYDLP | -0.245
PSTYVDAKYQSAAETTRPIL | < -0.25
SLSFREARDLGCPEQTRDDV | < -0.25
IVMGKNSELHFCNKVHARPI | < -0.25
TGLLSAQRIDLTAS | < -0.25
DQSTGRCRAIFTR | < -0.25
RPLSSSLDDLSSYGCRASSL | < -0.25
SSRLAIG | -0.235
YFVRVSMLMP | < -0.25
LLPRGDNDFPKGPDYATFGQ | < -0.25
LKCGGGGNNPLAA | < -0.25
KDSDVITRAM | < -0.25
VLLRRTDSEMHRA | < -0.25
GSVRA | < -0.25
YHS | < -0.25
SPEWSEHVMRILDRVACGP | < -0.25
KSAEKGGVTPVN | < -0.25

Some of the entries above in another layout:
Substance,growth estimate
VECLTIPLEARLRLVGCRRL,< -0.25
GQRSRRTPPLVYI,< -0.25
LCREC,< -0.25
LGTPVSGKCTVPEIGRSARG,< -0.25
